No constants are given. Whether binding was seen depends on the method and setting. Some entries that bind do so weakly or less than the wild type.

Chains of the proteins cited; added tags and fusions are not shown. Lines headed by an entry give the natural chain unless they say otherwise; changes in a name come on top.
UniProt O00206: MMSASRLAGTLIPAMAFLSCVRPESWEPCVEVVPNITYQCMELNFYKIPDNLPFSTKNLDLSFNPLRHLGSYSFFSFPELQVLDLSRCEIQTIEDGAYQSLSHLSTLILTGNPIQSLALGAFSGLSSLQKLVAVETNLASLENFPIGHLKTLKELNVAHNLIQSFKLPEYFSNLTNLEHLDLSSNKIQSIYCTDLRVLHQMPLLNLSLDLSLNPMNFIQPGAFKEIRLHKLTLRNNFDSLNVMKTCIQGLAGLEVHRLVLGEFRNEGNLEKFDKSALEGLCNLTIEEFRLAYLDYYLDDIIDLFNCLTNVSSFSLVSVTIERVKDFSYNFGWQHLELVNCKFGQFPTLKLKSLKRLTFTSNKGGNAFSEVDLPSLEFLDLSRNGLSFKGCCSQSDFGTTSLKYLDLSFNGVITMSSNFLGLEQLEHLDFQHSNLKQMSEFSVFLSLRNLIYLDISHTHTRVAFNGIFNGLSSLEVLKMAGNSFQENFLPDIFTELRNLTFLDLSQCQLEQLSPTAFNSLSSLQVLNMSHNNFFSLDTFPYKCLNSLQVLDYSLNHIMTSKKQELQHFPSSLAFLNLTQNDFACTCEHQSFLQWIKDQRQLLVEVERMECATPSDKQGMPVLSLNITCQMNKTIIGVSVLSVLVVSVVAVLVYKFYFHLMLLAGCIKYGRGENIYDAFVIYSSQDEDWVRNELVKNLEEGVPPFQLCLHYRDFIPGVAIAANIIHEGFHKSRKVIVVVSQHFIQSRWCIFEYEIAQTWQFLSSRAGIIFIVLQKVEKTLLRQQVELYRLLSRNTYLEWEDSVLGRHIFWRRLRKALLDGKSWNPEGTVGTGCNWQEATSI
UniProt Q9Y6Y9: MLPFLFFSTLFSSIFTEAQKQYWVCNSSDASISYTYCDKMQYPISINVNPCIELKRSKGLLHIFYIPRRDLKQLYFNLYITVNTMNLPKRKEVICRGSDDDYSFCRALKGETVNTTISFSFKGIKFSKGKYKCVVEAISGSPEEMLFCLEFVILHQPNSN

Test [1] has as its target T1, recombinant human TLR4/MD2 composite (human) (UniProt O00206+Q9Y6Y9). Description: phage display biopanning and phage ELISA on TLR4/MD2. On the technique in general: An ELISA detects its analyte on a solid surface through an enzyme-linked reagent.
Test [2] concerns the target T1, recombinant human TLR4/MD2 composite (human). Description: phage ELISA of selected clones on plates coated with TLR4/MD2 (anti-M13-HRP, A450).

Turning to AMALDCFRWGWRMWCSSG [TAP2], the binding entry in test [1] and in test [2] was “binds” in each case.
Turning to ASANKNLLFKIRYSTARGGS [TAP1], the binding entry in test [1] and in test [2] was “binds” in each case.
Consider AMAYEIRCWWRWCYTSSG [TAP3], for which the binding entry in test [1] and in test [2] was “binds” throughout.

These data come from US20180148487A1.
